From paper PMC4339890 (Nature Communications, 2015)
No constants are given. Whether binding was seen depends on the method and setting. In cells and extracts the contact can be indirect.

Amino acid sequences for entries named in this document (tags omitted). A change or cut given only in a name is not applied to a line headed by its entry. Chains listed by the source or under a name are the forms on record and can include a tag or linker. Residues count along the entry.
UniProt Q9BUH6: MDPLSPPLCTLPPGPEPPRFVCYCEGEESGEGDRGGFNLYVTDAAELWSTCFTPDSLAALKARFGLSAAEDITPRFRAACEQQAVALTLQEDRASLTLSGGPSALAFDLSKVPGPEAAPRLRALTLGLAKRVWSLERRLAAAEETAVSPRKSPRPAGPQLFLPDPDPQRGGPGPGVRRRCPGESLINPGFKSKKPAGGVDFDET
PAXX deletion mutant AA 1–170: residues 1-170 of Q9BUH6
PAXX IN186–187AA (Q9BUH6, form named): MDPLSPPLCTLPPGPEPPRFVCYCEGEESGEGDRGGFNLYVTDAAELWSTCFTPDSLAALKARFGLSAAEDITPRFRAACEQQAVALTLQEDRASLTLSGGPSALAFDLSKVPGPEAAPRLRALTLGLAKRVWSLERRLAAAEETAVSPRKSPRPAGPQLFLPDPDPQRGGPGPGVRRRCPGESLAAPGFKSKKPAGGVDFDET
PAXX RRR177–179AAA (Q9BUH6, form named): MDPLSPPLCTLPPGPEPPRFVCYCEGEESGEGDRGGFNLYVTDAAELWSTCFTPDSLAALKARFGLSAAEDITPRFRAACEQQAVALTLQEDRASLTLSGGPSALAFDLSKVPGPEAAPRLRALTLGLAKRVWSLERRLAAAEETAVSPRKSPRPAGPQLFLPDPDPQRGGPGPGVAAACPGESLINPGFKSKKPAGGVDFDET
UniProt Q13426: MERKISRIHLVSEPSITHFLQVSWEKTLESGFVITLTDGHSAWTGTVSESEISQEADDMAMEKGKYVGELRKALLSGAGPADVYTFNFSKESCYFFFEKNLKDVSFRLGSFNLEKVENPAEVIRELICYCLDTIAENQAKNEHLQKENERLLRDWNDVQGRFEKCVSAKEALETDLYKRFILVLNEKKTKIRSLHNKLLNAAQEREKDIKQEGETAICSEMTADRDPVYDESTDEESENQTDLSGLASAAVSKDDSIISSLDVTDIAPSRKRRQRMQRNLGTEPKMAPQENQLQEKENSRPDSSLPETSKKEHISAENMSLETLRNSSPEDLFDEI

Experiments:
Experiment in all cases: co-IP; Flag-tagged bait expressed in HEK293 cells; anti-Flag M2 agarose; immunoblot of the endogenous partners; Fig. 1c with washes at different sodium concentrations; Fig. 5a with or without ethidium bromide added to the lysate
PAXX IN186–187AA (human) = PAXX IN186–187AA (human) (UniProt Q9BUH6)
[1] = molecular target: PAXX deletion mutant AA 1–170 (human) (UniProt Q9BUH6)
[2] = molecular target: PAXX F201A (expressed in HEK293) (human) (UniProt Q9BUH6)
[3] = molecular target: PAXX RRR177–179AAA (human) (UniProt Q9BUH6)

Measured: binding

XRCC4, endogenous (from UniProt Q13426 1-336)
no binding: all assays above
